The target in this experiment is T1, KAAG1 antigen on the surface of cancer cell lines (SKOV-3, OV-90, TOV-21G, OVCAR-3, TOV-112D, WIL2-S, A375, SK-MEL5, A-498) (human) (UniProt Q9UBP8).
T1 sequence: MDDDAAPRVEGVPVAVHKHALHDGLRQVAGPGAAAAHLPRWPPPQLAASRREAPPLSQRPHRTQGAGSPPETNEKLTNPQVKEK
In words: flow cytometry on SKOV-3 cells, anti-mouse IgG-FITC.

These are yes or no findings as the source states them, for the method shown. Some entries that bind do so weakly or less than the wild type.

B1: mouse 3D3 anti-KAAG1 antibody (antibody, V domains shown)
VH: EVQLQQSVAELVRPGASVTLSCKASGYIFTDYEIHWVKQTPVHGLEWIGVIDPETGNTAFNQKFKGKATLTADISSSTAYMELSSLTSEDSAVYYCMGYSDYWGQGTTLTVSS
VL: DIVMTQSPSSLAVSIGQKVTMNCKSSQSLLNSNFQKNFLAWYQQKPGQSPKLLIYFASTRESSIPDRFIGSGSGTDFTLTISSVQAEDLADYFCQQHYSTPLTFGAGTKLELK
B1: the binding result is “binds”.

Source of the values: patent US20120128661A1 (ALETHIA BIOTHERAPEUTICS, published 2012).
